These are yes or no findings as the source states them, for the method shown. For some of these results: In cells and extracts the contact can be indirect. Some binding calls cover weakened binding; strength is not graded here. For some of these results: Where a sequence is shown, tags or fusion partners need not be part of it. Blank lines part the entries; values can stand above or below the binder they belong to.
Key:
[1] = biological target: SH2 domain of Yes (UniProt P07947); assay: NMR titration; C-Cdc37 or C-Cdc37^Y298E added to 15N-labelled Yes^SH2, 15N-HSQC; both purified
[2] = biological target: SH2 domain of Yes (UniProt P07947); assay: NMR titration; pYESL added to 15N-labelled SH2 domain, 15N-HSQC; Yes^SH2: 25 °C, 1.2 molar equivalents of phosphopeptide at 250 μM; 20 mM Tris pH 7.5, 100 mM NaCl, 0.5 mM EDTA, 2 mM DTT; both purified
[3] = biological target: SH2 domain of Src (UniProt P12931); assay: as above
[4] = biological target: SH2 domain of Src (UniProt P12931); assay: ITC; phosphopeptide (600-750 μM, syringe) titrated into SH2 domain (50-60 μM, cell); 25 °C; 20 mM Tris, 100 mM NaCl, 0.5 mM EDTA, 1 mM TCEP; single binding site model; both purified
[5] = biological target: SH2 domain of Lyn (UniProt P07948); assay: as above
[6] = biological target: SH2 domain of Hck (UniProt P08631); assay: as above
[7] = biological target: FLAG-tagged bRaf, P15056; assay: co-IP; HEK-293 cotransfected with HA-Cdc37 variants and FLAG-bRaf; anti-FLAG resin 1 h at 4 °C; blot with anti-HA; conditions: remark: other sources report otherwise
[8] = biological target: SH3 domain of Yes (amino acids 91-152) (UniProt P07947); assay: NMR titration; 6.0 molar equivalents of unlabelled full-length Cdc37 (1.2 mM) added to 15N-labelled Yes^SH3 (200 μM); 5 °C; 50 mM KPi pH 6.5, 150 mM NaCl, 2 mM DTT; both purified
[9] = biological target: FLAG-tagged bRaf (UniProt P15056); assay: co-IP; HEK-293 cotransfected with HA-Cdc37 variants and FLAG-bRaf; anti-FLAG resin 1 h at 4 °C; blot with anti-HA

Sequences of proteins named here, by UniProt entry; tags and fusion partners are left off. Residues count along the entry.
SH3 domain of Yes (amino acids 91-152) (P07947, residues 91-152): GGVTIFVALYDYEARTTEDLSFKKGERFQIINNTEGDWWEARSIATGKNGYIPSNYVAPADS
SH2 domain of Yes (P07947, residues 158-255): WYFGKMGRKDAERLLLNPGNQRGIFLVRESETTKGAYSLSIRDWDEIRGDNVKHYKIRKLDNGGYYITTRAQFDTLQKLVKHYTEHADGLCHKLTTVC
UniProt P07948, residues 129-226: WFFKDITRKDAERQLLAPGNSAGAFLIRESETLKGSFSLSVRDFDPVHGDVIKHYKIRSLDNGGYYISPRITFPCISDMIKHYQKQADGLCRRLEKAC
UniProt P08631, residues 144-241: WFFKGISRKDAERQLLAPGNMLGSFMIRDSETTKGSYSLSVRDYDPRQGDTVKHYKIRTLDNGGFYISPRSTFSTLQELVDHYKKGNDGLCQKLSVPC
UniProt P15056: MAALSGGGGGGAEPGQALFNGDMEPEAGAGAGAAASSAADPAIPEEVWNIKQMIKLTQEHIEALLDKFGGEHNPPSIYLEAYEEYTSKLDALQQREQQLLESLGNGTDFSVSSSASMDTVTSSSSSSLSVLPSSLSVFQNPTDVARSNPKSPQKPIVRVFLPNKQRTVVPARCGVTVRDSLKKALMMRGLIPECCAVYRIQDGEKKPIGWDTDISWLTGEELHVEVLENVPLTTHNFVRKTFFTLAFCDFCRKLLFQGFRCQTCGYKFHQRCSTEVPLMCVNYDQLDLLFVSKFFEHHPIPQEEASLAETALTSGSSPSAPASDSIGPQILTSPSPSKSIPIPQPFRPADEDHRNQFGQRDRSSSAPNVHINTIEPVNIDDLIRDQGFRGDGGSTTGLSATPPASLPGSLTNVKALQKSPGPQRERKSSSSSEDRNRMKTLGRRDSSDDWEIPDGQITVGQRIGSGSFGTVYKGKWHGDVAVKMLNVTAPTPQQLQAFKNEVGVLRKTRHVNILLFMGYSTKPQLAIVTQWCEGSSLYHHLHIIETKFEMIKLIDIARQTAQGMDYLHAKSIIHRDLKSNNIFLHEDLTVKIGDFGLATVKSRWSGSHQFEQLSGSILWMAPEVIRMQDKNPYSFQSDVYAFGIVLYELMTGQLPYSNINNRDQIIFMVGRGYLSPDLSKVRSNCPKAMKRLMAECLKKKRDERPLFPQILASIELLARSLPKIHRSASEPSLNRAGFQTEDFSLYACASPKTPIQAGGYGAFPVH

B1: C-terminal domain of Cdc37 (a.a. 288-378) with the phosphomimetic mutation Y298E (domain or fragment, UniProt Q16543 288-378)
chain: GPGGLDPVEVEESLPEELQKCFDVKDVQMLQDAISKMDPTDAKYHMQRCIDSGLWVPNSKASEAKEGEEAGPGDPLLEAVPKTGDEKDVSV
- binding [1]: no binding

B4: Full-length human Cdc37 (protein, UniProt Q16543 1-378)
chain: MVDYSVWDHIEVSDDEDETHPNIDTASLFRWRHQARVERMEQFQKEKEELDRGCRECKRKVAECQRKLKELEVAEGGKAELERLQAEAQQLRKEERSWEQKLEEMRKKEKSMPWNVDTLSKDGFSKSMVNTKPEKTEEDSEEVREQKHKTFVEKYEKQIKHFGMLRRWDDSQKYLSDNVHLVCEETANYLVIWCIDLEVEEKCALMEQVAHQTIVMQFILELAKSLKVDPRACFRQFFTKIKTADRQYMEGFNDELEAFKERVRGRAKLRIEKAMKEYEEEERKKRLGPGGLDPVEVYESLPEELQKCFDVKDVQMLQDAISKMDPTDAKYHMQRCIDSGLWVPNSKASEAKEGEEAGPGDPLLEAVPKTGDEKDVSV
- binding [8]: binds weakly

B5: HA-tagged Cdc37 Y298F (protein, UniProt Q16543 1-378)
chain: MVDYSVWDHIEVSDDEDETHPNIDTASLFRWRHQARVERMEQFQKEKEELDRGCRECKRKVAECQRKLKELEVAEGGKAELERLQAEAQQLRKEERSWEQKLEEMRKKEKSMPWNVDTLSKDGFSKSMVNTKPEKTEEDSEEVREQKHKTFVEKYEKQIKHFGMLRRWDDSQKYLSDNVHLVCEETANYLVIWCIDLEVEEKCALMEQVAHQTIVMQFILELAKSLKVDPRACFRQFFTKIKTADRQYMEGFNDELEAFKERVRGRAKLRIEKAMKEYEEEERKKRLGPGGLDPVEVFESLPEELQKCFDVKDVQMLQDAISKMDPTDAKYHMQRCIDSGLWVPNSKASEAKEGEEAGPGDPLLEAVPKTGDEKDVSV
- binding [9]: binds

The remaining lines, values ahead:

- binding [2]: binds
- binding [3]: binds
- binding [4]: binds
- binding [5]: binds weakly
- binding [6]: binds
B2: Phosphotyrosine-modified decapeptide EVpYESLPEEL of Cdc37 (residues 296-305) (peptide)
peptide: EVYESLPEEL
modifications: phosphotyrosine at Y298 (third residue of the peptide)

- binding [7]: binds
B3: HA-tagged wild-type Cdc37, Q16543 1-378 (protein)
chain: MVDYSVWDHIEVSDDEDETHPNIDTASLFRWRHQARVERMEQFQKEKEELDRGCRECKRKVAECQRKLKELEVAEGGKAELERLQAEAQQLRKEERSWEQKLEEMRKKEKSMPWNVDTLSKDGFSKSMVNTKPEKTEEDSEEVREQKHKTFVEKYEKQIKHFGMLRRWDDSQKYLSDNVHLVCEETANYLVIWCIDLEVEEKCALMEQVAHQTIVMQFILELAKSLKVDPRACFRQFFTKIKTADRQYMEGFNDELEAFKERVRGRAKLRIEKAMKEYEEEERKKRLGPGGLDPVEVYESLPEELQKCFDVKDVQMLQDAISKMDPTDAKYHMQRCIDSGLWVPNSKASEAKEGEEAGPGDPLLEAVPKTGDEKDVSV

- binding [9]: binds
B6: HA-tagged Cdc37 Y298E (protein, UniProt Q16543 1-378)
chain: MVDYSVWDHIEVSDDEDETHPNIDTASLFRWRHQARVERMEQFQKEKEELDRGCRECKRKVAECQRKLKELEVAEGGKAELERLQAEAQQLRKEERSWEQKLEEMRKKEKSMPWNVDTLSKDGFSKSMVNTKPEKTEEDSEEVREQKHKTFVEKYEKQIKHFGMLRRWDDSQKYLSDNVHLVCEETANYLVIWCIDLEVEEKCALMEQVAHQTIVMQFILELAKSLKVDPRACFRQFFTKIKTADRQYMEGFNDELEAFKERVRGRAKLRIEKAMKEYEEEERKKRLGPGGLDPVEVEESLPEELQKCFDVKDVQMLQDAISKMDPTDAKYHMQRCIDSGLWVPNSKASEAKEGEEAGPGDPLLEAVPKTGDEKDVSV

Source: article PMC5772613
